In this test the target is T1, CRTC1 (CREB-regulated transcription coactivator 1) (human) (UniProt Q6UUV9).
T1 sequence: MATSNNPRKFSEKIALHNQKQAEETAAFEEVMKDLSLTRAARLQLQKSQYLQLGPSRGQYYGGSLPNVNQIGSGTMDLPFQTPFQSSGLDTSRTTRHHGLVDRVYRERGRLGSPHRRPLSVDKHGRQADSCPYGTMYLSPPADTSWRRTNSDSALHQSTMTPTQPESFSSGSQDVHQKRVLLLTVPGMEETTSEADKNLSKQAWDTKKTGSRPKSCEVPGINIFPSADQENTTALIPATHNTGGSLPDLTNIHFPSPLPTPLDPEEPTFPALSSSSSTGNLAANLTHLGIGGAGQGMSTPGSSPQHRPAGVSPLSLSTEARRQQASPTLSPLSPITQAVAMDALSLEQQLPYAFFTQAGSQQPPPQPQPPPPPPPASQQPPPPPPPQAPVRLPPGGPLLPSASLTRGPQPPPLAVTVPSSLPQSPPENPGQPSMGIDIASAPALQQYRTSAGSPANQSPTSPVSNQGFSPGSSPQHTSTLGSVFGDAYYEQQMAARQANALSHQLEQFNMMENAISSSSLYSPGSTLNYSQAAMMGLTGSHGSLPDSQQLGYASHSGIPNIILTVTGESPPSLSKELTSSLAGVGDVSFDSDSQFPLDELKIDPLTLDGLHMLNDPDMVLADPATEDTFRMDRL
As to the kind of experiment: co-immunoprecipitation with anti-PAK4 in SH-SY5Y cells, and His pull-down of GST-PAK4 on His-CRTC1-bound Ni-NTA beads; immunoblot. (In general: Immunoblotting shows a protein as a band on a membrane.)

Chains of the proteins cited; added tags and fusions are not shown. Lines headed by an entry give the natural chain unless they say otherwise; changes in a name come on top.
UniProt O96013: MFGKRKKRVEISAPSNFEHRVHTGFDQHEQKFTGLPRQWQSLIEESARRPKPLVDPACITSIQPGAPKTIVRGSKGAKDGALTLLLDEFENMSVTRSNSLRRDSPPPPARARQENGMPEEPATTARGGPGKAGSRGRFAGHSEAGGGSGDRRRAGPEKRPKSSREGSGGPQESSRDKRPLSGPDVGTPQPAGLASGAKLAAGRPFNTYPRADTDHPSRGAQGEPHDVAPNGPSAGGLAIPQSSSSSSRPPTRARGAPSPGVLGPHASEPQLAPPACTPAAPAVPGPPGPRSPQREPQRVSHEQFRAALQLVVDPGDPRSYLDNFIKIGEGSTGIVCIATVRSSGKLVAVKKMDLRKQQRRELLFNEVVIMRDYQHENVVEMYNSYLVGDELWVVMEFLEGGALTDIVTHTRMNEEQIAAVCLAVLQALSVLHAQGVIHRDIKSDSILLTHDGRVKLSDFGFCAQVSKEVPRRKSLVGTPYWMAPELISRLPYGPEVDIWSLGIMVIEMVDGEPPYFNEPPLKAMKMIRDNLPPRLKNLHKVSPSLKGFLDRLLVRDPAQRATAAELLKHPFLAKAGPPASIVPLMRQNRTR

No constants are given. Whether binding was seen depends on the method and setting. In cells and extracts the contact can be indirect. Some entries that bind do so weakly or less than the wild type.

On to “PAK4 (p21-activated kinase 4) (from UniProt O96013 1-591) (enzyme)”, for which the binding entry is “binds”.

For the origin of these results see patent US20190017997A1.
